PubChem BioAssay AID720505 | Drosophila RNAi Screening Center | 2013
Test: 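Genes needed for store-operated calcium entry in fly cells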 (primary screen). Cell system: Drosophila S2R+ cells. Knock-down reagent: long dsRNA against Drosophila genes. Treatment: thapsigargin (2 µM) in calcium-free buffer to empty internal stores, then 2 mM calcium added back. Detection: 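Stores emptied by 2 µM thapsigargin without calcium, then 2 mM calcium re-added; fluo-4 fluorescence followed by FLIPR in 384-well plates, per-well averaged endpoint, raw; two screen passes, some wells retested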. Reading the numbers: calcium signal and retest calcium signal: higher = more calcium entry after store depletion. Rule for the call: 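Knock-downs counted as hits when calcium entry dropped relative to STIM1 positive and Rho1 negative controls present on each plate; roughly 1500 genes called, with reductions of differing size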. Meaning of the calls: active = called as lowering calcium entry; inactive = not called.
The deposit covers about 20,000 reagents; below is a random part of those that have a named target and a result. In the full data, about 2,100 (10%) are marked active. 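Raw plate signals without normalisation; calls rest on control-based scores that were not deposited; replicate 2 separates called from uncalled poorly.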 Reagents against one gene are numbered here. Names joined by + are all predicted targets of the reagent. The record does not give: the amount of reagent, the time to read-out.

The first 4 entries as a preview:
| Target gene | reagent | calcium signal, replicate 1 | calcium signal, replicate 2 | retest calcium signal, replicate 1 | retest calcium signal, replicate 2 | Outcome |
| --- | --- | --- | --- | --- | --- | --- |
| CG4563 | 1 | 171 | 178 | – | – | inactive |
| Acp24A4 (Accessory gland protein 24A4) | 1 | 109 | 227 | – | – | inactive |
| Csp (Cysteine string protein) | 1 | 103 | 112 | – | – | inactive |
| CG31821 | 1 | 81.3 | 174 | – | – | inactive |

Results, from the first entry:
| Target gene | reagent | calcium signal, replicate 1 | calcium signal, replicate 2 | retest calcium signal, replicate 1 | retest calcium signal, replicate 2 | Outcome |
| --- | --- | --- | --- | --- | --- | --- |
| CG4563 | 1 | 171 | 178 | – | – | inactive |
| Acp24A4 (Accessory gland protein 24A4) | 1 | 109 | 227 | – | – | inactive |
| Csp (Cysteine string protein) | 1 | 103 | 112 | – | – | inactive |
| CG31821 | 1 | 81.3 | 174 | – | – | inactive |
| Fbl6 (F-box and leucine-rich repeat protein 6) | 1 | 120 | 132 | – | – | inactive |
| CG16813 | 1 | 117 | 105 | – | – | inactive |
| hoe1 (hoepel1) | 1 | 83.3 | 168 | – | – | inactive |
| hoe1 (hoepel1) | 2 | 168 | 98.1 | – | – | inactive |
| hoe1 (hoepel1) | 3 | 160 | 99.1 | – | – | inactive |
| CycY (Cyclin Y) | 1 | 114 | 103 | – | – | inactive |
| Ugt35A1 (UDP-glycosyltransferase family 35 member A1) | 1 | 118 | 165 | – | – | inactive |
| bsd (back seat driver) | 1 | 77.2 | 81.1 | – | – | inactive |
| CG16974 | 1 | 86.9 | 129 | – | – | inactive |
| tutl (turtle) | 1 | 75.6 | 105 | – | – | inactive |
| tutl (turtle) | 2 | 91.7 | 104 | – | – | inactive |
| tutl (turtle) | 3 | 86.5 | 105 | – | – | inactive |
| unc-104 (uncoordinated-104) | 1 | 165 | 133 | – | – | inactive |
| Hat1 (Histone acetyltransferase 1) | 1 | 111 | 161 | – | – | inactive |
| CG18278 + CG30059 | 1 | 77.5 | 141 | – | – | inactive |
| Cap-D3 + tomb | 1 | 80.2 | 125 | – | – | inactive |
| CG13069 | 1 | 90.5 | 159 | – | – | inactive |
| CG15459 | 1 | 108 | 87.5 | 6483 | 182 | inactive |
| CG15459 | 2 | 151 | 86.5 | – | – | inactive |
| CG34320 (retired record) | 1 | – | – | – | – | inactive |
| CG17168 | 1 | 46.4 | 124 | – | – | active |
| Lgr3 (Leucine-rich repeat-containing G protein-coupled receptor 3) | 1 | 167 | 127 | – | – | inactive |
| Lgr3 (Leucine-rich repeat-containing G protein-coupled receptor 3) | 2 | 71.8 | 107 | – | – | inactive |
| Or43a (Odorant receptor 43a) | 1 | 108 | 109 | – | – | inactive |
| NtR | 1 | 188 | 81 | – | – | inactive |
| X11Lbeta | 1 | 131 | 87.1 | – | – | inactive |
| X11Lbeta | 2 | 132 | 88.8 | – | – | inactive |
| CG3704 | 1 | 84.7 | 144 | – | – | inactive |
| CG3704 | 2 | 72.8 | 129 | – | – | inactive |
| ArgRS (Arginyl-tRNA synthetase) | 1 | 112 | 148 | – | – | inactive |
| Acp53Ea (Accessory gland protein 53Ea) | 1 | 144 | 133 | – | – | inactive |
| Rtc1 | 1 | 139 | 135 | – | – | inactive |
| CR30029 (pseudo) | 1 | 109 | 133 | – | – | inactive |
| CG9072 | 1 | 96.9 | 135 | – | – | inactive |
| SmydA-8 (SET and MYND domain containing, arthropod-specific, member 8) | 1 | 132 | 120 | – | – | inactive |
| SmydA-8 (SET and MYND domain containing, arthropod-specific, member 8) | 2 | 122 | 227 | – | – | inactive |
| SmydA-8 (SET and MYND domain containing, arthropod-specific, member 8) | 3 | 93.5 | 175 | – | – | inactive |
| CG42834 | 1 | – | – | – | – | active |
| Nna1 (Nna1 carboxypeptidase) | 1 | 4924 | 88.5 | 90.8 | 108 | active |
| Nna1 (Nna1 carboxypeptidase) | 2 | 157 | 137 | – | – | inactive |
| Nna1 (Nna1 carboxypeptidase) | 3 | 69.7 | 94.4 | – | – | active |
| Cyp4e3 (Cytochrome P450 4e3) | 1 | 136 | 158 | – | – | inactive |
| grnd (grindelwald) | 1 | 95.4 | 82.1 | – | – | inactive |
| ACXE (Adenylyl cyclase X E) | 1 | 119 | 177 | – | – | inactive |
| CG17260 | 1 | 88.1 | 217 | – | – | inactive |
| CG3713 | 1 | 81.8 | 193 | – | – | inactive |
| gem (gemini) | 1 | 142 | 193 | – | – | inactive |
| gem (gemini) | 2 | 115 | 108 | – | – | inactive |
| cnc (cap-n-collar) | 1 | 189 | 160 | – | – | inactive |
| cnc (cap-n-collar) | 2 | 170 | 275 | – | – | inactive |
| cnc (cap-n-collar) | 3 | 183 | 180 | – | – | inactive |
| cnc (cap-n-collar) | 4 | 190 | 179 | – | – | inactive |
| CG7298 | 1 | 86.5 | 80.5 | – | – | inactive |
| CG8664 | 1 | 71 | 103 | – | – | active |
| p38c (p38c MAP kinase) | 1 | 132 | 156 | – | – | inactive |
| CG9084 | 1 | 101 | 110 | – | – | inactive |
| Uxt (Uxt prefoldin-like subunit) | 1 | 119 | 121 | – | – | inactive |
| MKP-4 (MAPK Phosphatase 4) | 1 | 115 | 94.4 | – | – | inactive |
| CG5079 | 1 | 156 | 148 | – | – | inactive |
| CG5079 | 2 | 94.1 | 140 | – | – | inactive |
| TTLL1B (Tubulin tyrosine ligase-like 1B) | 1 | 93.2 | 75.7 | – | – | inactive |
| CG6733 | 1 | 174 | 134 | – | – | inactive |
| CG2889 | 1 | 70.9 | 92.4 | – | – | inactive |
| Dap160 (Dynamin associated protein 160) | 1 | 77 | 4005 | – | – | inactive |
| Dap160 (Dynamin associated protein 160) | 2 | 119 | 144 | – | – | inactive |
| GLS (Glutaminase) | 1 | 129 | 104 | – | – | inactive |
| rempA (reduced mechanoreceptor potential A) | 1 | 84.4 | 113 | – | – | inactive |
| frm (farmer) | 1 | 67.6 | 128 | 124 | 95.1 | active |
| CG43373 | 1 | 91.8 | 192 | – | – | inactive |
| CG43373 | 2 | 96.2 | 195 | – | – | inactive |
| CG9784 | 1 | 114 | 122 | – | – | inactive |
| loopin-1 | 1 | 190 | 108 | – | – | inactive |
| CG32631 | 1 | 131 | 96.2 | – | – | inactive |
| CG9970 | 1 | 73.9 | 69.2 | – | – | inactive |
| CG43394 | 1 | 163 | 94.1 | – | – | inactive |
| CG43394 | 2 | 98.7 | 172 | – | – | inactive |
| Upf2 | 1 | 195 | 74.4 | – | – | inactive |
| spt4 | 1 | 148 | 161 | – | – | inactive |
| CG5938 | 1 | 89.9 | 88.7 | – | – | inactive |
